Experimental data: PubChem BioAssay AID720505 (Drosophila RNAi Screening Center, 2013)
Purpose: 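Knock-downs that reduce calcium influx once internal stores are emptied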 (primary screen). Cells: Drosophila S2R+ cells. Knock-down reagent: long dsRNA against Drosophila genes. Treatment: thapsigargin (2 µM) in calcium-free buffer to empty internal stores, then 2 mM calcium added back. Read-out: 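Fluo-4 signal in 384-well plates read on a FLIPR after thapsigargin (2 µM, calcium-free) store depletion and 2 mM calcium add-back; unnormalised mean endpoint per well; screen run twice, selected wells retested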. Direction: calcium signal and retest calcium signal: higher = more calcium entry after store depletion. Hit rule: 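Knock-downs counted as hits when calcium entry dropped relative to STIM1 positive and Rho1 negative controls present on each plate; roughly 1500 genes called, with reductions of differing size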. Meaning of the calls: active = called as lowering calcium entry; inactive = not called.
The screen tested about 20,000 reagents; below is a random part of those that have a named target and a result. Over the whole deposit, about 2,100 (10%) are marked active. 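Raw plate signals without normalisation; calls rest on control-based scores that were not deposited; replicate 2 separates called from uncalled poorly.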 A number with no mark means an inactive call. Reagents against one gene are numbered here. A plus sign joins genes that one reagent is predicted to hit. Not stated in the record: the amount of reagent, the time to read-out.

Gene	reagent	calcium signal, replicate 1	calcium signal, replicate 2	retest calcium signal, replicate 1	retest calcium signal, replicate 2
CG15141	1	90.1	88.7		
CG15141	2	151	154		
CstF64 (Cleavage stimulation factor 64 kD subunit)	1	195	149		
Nipped-A	1	136	97.2	86.8	116
Nipped-A	2	99.8	126		
Nipped-A	3	163	170		
Nipped-A	4	112	144		
Nipped-A	5	81.3	243		
ebd1 (earthbound 1)	1	128	101		
Arpc4 (Actin-related protein 2/3 complex, subunit 4)	1	139	107		
alpha-PheRS (Phenylalanyl-tRNA synthetase, alpha-subunit)	1	121 (active)	59.6		
pico	1	76.8	120		
CG13895	1	89.4	74.6		
BomS3 (Bomanin Short 3)	1	115	80.9		
CG9270	1	92.3	140		
tup (tailup)	1	102	102		
mRpS35 (mitochondrial ribosomal protein S35)	1	103	117		
Tsp97E (Tetraspanin 97E)	1	118	121		
in (inturned)	1	97.3 (active)	106		
tweek	1	131	167		
tweek	2	120	107		
tweek	3	105	135		
tweek	4	114	165		
CG12702	1	111	126		
CG31219	1	248	194		
CG4991	1	74.5 (active)	110		
mIF2 (mitochondrial translation initiation factor 2)	1	162	125		
kug (kugelei)	1	98.3	144		
CG13046	1	100	149		
RpS29 + snoRNA:Psi18S-1275	1	67.7 (active)	113		
eIF4E1 (eukaryotic translation initiation factor 4E1)	1	53.3 (active)	105		
CG6125	1	92.4	68.7		
Prosalpha2 (Proteasome alpha2 subunit)	1	72.6 (active)	109		
CG14073	1	85.6	128		

Taken from above.
For “calcium signal, replicate 2”, mRpS35 (mitochondrial ribosomal protein S35) reads 117
For “calcium signal, replicate 2”, CG13046 has 149
